# Measured values reported in PubChem BioAssay AID540275 (National Center for Advancing Translational Sciences (NCATS), 2011).
# The chains behind the UniProt entries cited, without tags or fusion partners.
# UniProt Q8NER1, whole entry, looked up: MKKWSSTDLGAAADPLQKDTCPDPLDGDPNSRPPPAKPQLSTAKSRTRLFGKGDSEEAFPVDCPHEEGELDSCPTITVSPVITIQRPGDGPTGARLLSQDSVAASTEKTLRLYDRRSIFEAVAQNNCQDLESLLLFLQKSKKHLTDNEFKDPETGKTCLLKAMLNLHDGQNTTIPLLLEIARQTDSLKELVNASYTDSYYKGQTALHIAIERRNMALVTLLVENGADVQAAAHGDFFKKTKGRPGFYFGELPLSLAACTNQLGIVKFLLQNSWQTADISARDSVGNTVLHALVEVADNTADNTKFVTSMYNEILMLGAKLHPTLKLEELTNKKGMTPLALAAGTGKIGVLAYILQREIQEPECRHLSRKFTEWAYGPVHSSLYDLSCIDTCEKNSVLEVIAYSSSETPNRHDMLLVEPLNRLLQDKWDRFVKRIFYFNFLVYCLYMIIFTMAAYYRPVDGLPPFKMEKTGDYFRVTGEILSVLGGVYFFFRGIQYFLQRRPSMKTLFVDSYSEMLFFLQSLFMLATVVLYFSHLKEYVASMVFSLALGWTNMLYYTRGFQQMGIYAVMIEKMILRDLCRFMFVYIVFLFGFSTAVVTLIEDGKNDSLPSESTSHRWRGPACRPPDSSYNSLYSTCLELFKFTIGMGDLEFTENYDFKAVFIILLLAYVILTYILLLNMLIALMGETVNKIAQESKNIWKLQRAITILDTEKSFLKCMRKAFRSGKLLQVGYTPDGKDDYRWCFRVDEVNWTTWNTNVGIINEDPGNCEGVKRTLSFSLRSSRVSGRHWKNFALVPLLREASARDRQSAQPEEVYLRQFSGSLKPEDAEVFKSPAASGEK
# Where “and” joins values, the source holds several entries; their conditions need not be identical. Equal values may be shown once. Hit rate of the full screen: of about 320,000 compounds, about 620 (0.19%) were called active. The inconclusive results got no clear call from the source; some entries with a clear call stand among them for comparison. Rule as the data show it: active = activation above about 80%; inconclusive = between about 30% and that limit; inactive = weaker than that.
# Target: Transient receptor potential cation channel subfamily V member 1 (Homo sapiens) (UniProt Q8NER1)
# Experiment: HTS Assay for Compounds that Act as Agonists of the Vanilloid Receptor 1; also: 0% is about no effect
# Details: TRPV1-expressing cells, Fluo-8 calcium influx, agonist mode; at 8.33 µM, stronger effect = higher value
# How it was run: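 Fluo-8 calcium influx in TRPV1-expressing cells, kinetic read (ex 480/em 520 nm). Compound added and read 3 min for agonist activity, followed by capsaicin at EC20 final and 2 min further read for enhancement.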
row,Compound,activation
1,CCOc1ccc(OCC(=O)Nc2nccs2)cc1,inactive: 2.39%
2,COc1ccc(CNc2nc3ccccc3n2CCN2CCCCC2)cc1,inactive: 28.4%
3,CC(C)Cn1c(C23CC4CC(CC(C4)C2)C3)n[nH]c1=S,inconclusive: 32%
4,CCn1c(C(=O)N2CCC(C(=O)NCCCSC3CCCCC3)CC2)cc2sccc21,inactive: 12.7%
5,CCN1CCN(c2ccc(S(=O)(=O)N3CCCCC3)cc2NC(=O)COc2ccc(Cl)c(C)c2)CC1,inconclusive: 32.9%
6,Cc1nn(C)cc1CN(C)C(=O)CC12CC3CC(CC(C3)C1)C2,inconclusive: 43.4%
7,Cc1ccc(Nc2nnc(SC3CCOC3=O)s2)cc1 (stereo unspecified),inconclusive: 73.9%
8,CC1=C(/C=C/C(C)=N\NC(=O)c2ccncc2)C(C)(C)CCC1,inconclusive: 48.8%
9,CCOC(=O)c1cccc(Nc2ncnc3ccc(C)cc23)c1,inconclusive: 42.1%
10,Cc1ccc(S(=O)(=O)NC(CC(C)C)C(=O)N2CCC(C)CC2)cc1 (stereo unspecified),inconclusive: 45.5%
11,O=C(CCC1CCCC1)Nc1ccc([N+](=O)[O-])cn1,inconclusive: 42.5%
12,OCCN(CCO)CC(O)COc1ccc(Br)cc1 (stereo unspecified),inactive: -0.749% and inactive: 3.42%
13,Cc1cc(C)cc(NC(=O)Cc2ccc(-n3cccc3)cc2)c1,inconclusive: 35.7%
14,CC1Cc2ccccc2N1C(=O)CSc1nnc2n1C(C)(C)Cc1ccccc1-2 (stereo unspecified),inconclusive: 33.6%
15,Cc1ccc(Nc2nc(N)nc(CN3CCN(c4ccccc4)CC3)n2)cc1Cl,inactive: 20.1%
16,O=C(N/N=C/c1ccccc1F)c1csc2c1CCCC2,inconclusive: 41.3%
17,O=C(Nc1ccccc1F)c1ccc2c(c1)OCO2,inconclusive: 40.8%
18,CNC(=O)COC(=O)c1cc2c(C)nn(-c3ccc(F)cc3)c2s1,inconclusive: 56.6%
19,O=C(NC12CC3CC(CC(C3)C1)C2)N(Cc1ccccc1)Cc1ccncc1,inconclusive: 48.2%
20,COc1ccc(/C=N/NC(=S)Nc2ccccc2)cc1COc1cccc(C)c1C,inactive: 0.977%
21,Cc1c(C(=O)Nc2ccncc2)oc2c1C(=O)CC(C)(C)C2,inconclusive: 31.1%
22,COc1ccc(CCNc2oc(-c3cccc4ccccc34)nc2P(=O)(OC)OC)cc1OC,inconclusive: 34%
23,Cc1cccn2c(=O)c(C=O)c(N3CCN(c4ccccc4)CC3)nc12,inconclusive: 39%

# Some of the entries so far, with bars between the fields.
row | Compound | activation
2 | COc1ccc(CNc2nc3ccccc3n2CCN2CCCCC2)cc1 | inactive: 28.4%
9 | CCOC(=O)c1cccc(Nc2ncnc3ccc(C)cc23)c1 | inconclusive: 42.1%
11 | O=C(CCC1CCCC1)Nc1ccc([N+](=O)[O-])cn1 | inconclusive: 42.5%
13 | Cc1cc(C)cc(NC(=O)Cc2ccc(-n3cccc3)cc2)c1 | inconclusive: 35.7%
22 | COc1ccc(CCNc2oc(-c3cccc4ccccc34)nc2P(=O)(OC)OC)cc1OC | inconclusive: 34%

# More results follow.

row,Compound,activation
1,CCc1ccc(-c2cc(C(=O)NCc3ccccn3)c3ccccc3n2)cc1,inconclusive: 45.6%
2,CCOC(=O)Cc1csc(N/N=C/c2ccccc2)n1,inactive: 0.285%
3,CCN1CCN(c2nc3c(C)cccn3c(=O)c2/C=C(\C#N)S(=O)(=O)c2ccc(C)cc2)CC1,inconclusive: 53.4%
4,COc1ccc(Oc2coc3c(CN(C)C)c(O)ccc3c2=O)cc1,inactive: -7.46%
5,COc1ccc(C2CC2/C(C)=N/OC(=O)c2ccc(F)cc2)cc1 (stereo unspecified),inconclusive: 40.4%
6,O=C1NC(c2ccccc2)=C(c2ccc3ccccc3n2)C(c2ccccc2)N1 (stereo unspecified),inactive: -1.47%
7,O=C(Oc1ccccc1)c1ccc2c(c1)C(=O)N(Cc1ccncc1)C2=O,inconclusive: 50.6%
8,Cc1ccc(Nc2nc(C)nc3c2oc2ccccc23)cc1,active: 88.2%
9,C/C(Cn1nc([N+](=O)[O-])cc1C)=N\NC(=O)c1ccc(O)cc1O,inconclusive: 43%
10,COC(=O)c1cccnc1-n1c(=O)c2cccnc2n(Cc2cccc(C(F)(F)F)c2)c1=O,inactive: 1.17%
11,O=C(Nc1nccs1)c1ccc(S(=O)(=O)NCc2cccs2)cc1,inactive: 1.69%
12,Cc1ccc(S(=O)(=O)N2CCC(C(=O)Nc3ccccc3N3CCCCC3)CC2)cc1,inconclusive: 35.5%
13,CCCCN(C)Cc1c(C(=O)N2CCc3ccccc3C2)nc2ccc(Cl)cn12,inconclusive: 41.4%
14,CCOc1ccc(NC(=O)c2ccc(S(=O)(=O)N3CCOCC3)cc2)cc1,inconclusive: 51.9%
15,CCOc1ccccc1NC(=O)C(CC(C)C)NC(=O)C1CCC(C)CC1 (stereo unspecified),inconclusive: 54.5%
16,COc1ccc(COc2cc(-c3cccc(OC)c3)nc3ccc(NC(C)=O)cc23)cc1,inactive: 1.11%
17,COC(=O)c1nnn(-c2ccc(F)c(Cl)c2)c1C(=O)OC,inactive: -0.457%
18,CCC(C)Oc1cc(-c2ccnc(Nc3cccc(Cl)c3)n2)ccn1 (stereo unspecified),inconclusive: 52%
19,CC(C)CNc1nc(S(=O)(=O)c2ccccc2)c(Cl)s1,inconclusive: 35%
20,Brc1cccc(CNc2nc3ccccc3n2CCN2CCCCC2)c1,inconclusive: 34.8%
21,O=C(Cc1c(F)cccc1Cl)Nc1cc(S(=O)(=O)N2CCCCC2)ccc1N1CCOCC1,inconclusive: 41.3%
22,CC1=NN(Cc2ccccc2)C(=O)/C1=C\c1ccc(N(C)C)cc1,inconclusive: 44.3%
23,CCOC(=O)C1=C(O)C(=O)N(Cc2ccc(C(C)(C)C)cc2)CC1,inconclusive: 30.6%

# Part of the list above, as tab-separated lines:
row	Compound	activation
14	CCOc1ccc(NC(=O)c2ccc(S(=O)(=O)N3CCOCC3)cc2)cc1	inconclusive: 51.9%
15	CCOc1ccccc1NC(=O)C(CC(C)C)NC(=O)C1CCC(C)CC1 (stereo unspecified)	inconclusive: 54.5%

# Next part

row,Compound,activation
1,C=CCN1C=CC(=C/C=C(/C#N)C(=O)OCC)C=C1,inactive: 19.4%
2,Cc1onc(-c2c(F)cccc2Cl)c1C(=O)c1ccccc1,inactive: 28.8%
3,CCOc1ccc(NC(=S)Nc2cc(-c3ccccc3)[nH]n2)cc1,inactive: 2.67%
4,O=C(NC1CCCc2ccccc21)C1CCN(S(=O)(=O)c2ccccc2)CC1 (stereo unspecified),inconclusive: 41.6%
5,O=C(NNC(=O)c1ccc2ccccc2c1O)NC1CCCCC1,inactive: -3.8%
6,Cc1ccc(NC(=O)c2ccc(OC(=O)c3cc4ccccc4o3)cc2)cc1,inconclusive: 64.2%
7,CC1CCCCC1NC(=O)c1cccc(NC2=NC3CS(=O)(=O)CC3S2)c1 (stereo unspecified),inactive: 1.89%
8,CCCn1c(N2CCN(C(=O)NCc3ccccc3)CC2)nc2ccccc21,inconclusive: 54%
9,Cc1ccc(C(=O)NC(=S)NCc2ccco2)cc1,inactive: 14.4%
10,COc1ccc(/C=N/N2CCOCC2)cc1COc1ccc(F)cc1,inconclusive: 32.8%
11,CCOc1ccccc1NC(=S)NCCc1ccc(F)cc1,inconclusive: 33.7%
12,CCCc1nn(-c2cc(Cl)ccc2OC)c2c1C(=O)CCC2,inconclusive: 33.8%
13,CN(C)CCOc1nc(-c2ccccc2)nc2c1oc1ccccc12,inactive: -1.87%
14,O=C(c1ccc(-c2nc3ccccc3s2)o1)N1CCN(c2ccccc2O)CC1,inactive: 2.28%
15,CC1CCN(C(=O)C2CCCN(c3ncnc4c3nc3n4CCCCC3)C2)CC1 (stereo unspecified),inactive: 12.9%
16,Cc1cc(Br)ccc1NC(=O)CN(C)C(=O)C1CSC2(C)CCC(=O)N12 (stereo unspecified),inactive: -0.649%
17,O=C(COc1ncnc2ccc(Br)cc12)Nc1ccc(N2CCOCC2)cc1,inactive: 0.578%
18,CCOC(=O)N1CCC(N2C(=O)c3ccc(C(=O)NCc4ccc(F)cc4)cc3C2=O)CC1,inconclusive: 32.9%
19,Cc1ccccc1NC(=O)c1ccc(S(=O)(=O)C(F)F)cc1,inconclusive: 32.6%
20,CCOc1ccc(NC(=O)NCCCCc2ccccc2)cc1,inconclusive: 39.1%
21,CCc1ccccc1NC(=O)c1cnn(-c2ccccc2)c1C,inconclusive: 35.7%
22,O=C1N=C(N2CCCCC2)S/C1=C\c1ccc(Cl)cc1,inconclusive: 64.1%
23,C=CCn1c(SCc2c(C)noc2C)nc2sc3c(c2c1=O)CCCC3,inconclusive: 41.1%

row,Compound,activation
1,O=C(NNC1=Nc2ccccc2SC1)c1ccc(F)cc1,inconclusive: 46.1%
2,CC(C)Oc1ccc(CCC(=O)N/N=C/c2ccncc2)cc1,inconclusive: 66.2%
3,Cc1c(C(=O)OCC(=O)Nc2cccc(S(N)(=O)=O)c2)oc2c1ccc1ccccc12,inconclusive: 57.7%
4,Cc1ccc(C)c(NC(=S)NCCSc2ccc(Cl)cc2)c1,inactive: 23.7%
5,NNC(=S)Nc1ccc(OC(F)(F)F)cc1,inactive: -2.76%
6,CN(C)c1ccc(CN(CC2CCCO2)C(=O)c2cc3ccccc3o2)cc1 (stereo unspecified),inconclusive: 62.6%
7,CCOC(=O)C1(Cc2cccc(Cl)c2)CCCN(C2CCN(C(C)=O)CC2)C1 (stereo unspecified),inconclusive: 43.1%
8,Cc1ccccc1NC(=O)COc1ccc2c(c1)OC(C)(C)CC2=O,inconclusive: 45.5%
9,O=C(CCCN1C(=O)/C(=C/c2ccccc2Cl)SC1=S)NNC(=O)c1ccc(Cl)cc1Cl,inactive: -5.22%
10,COc1cc(C(=O)N/N=C/c2ccc3c(c2)c2ccccc2n3C)ccc1O,inactive: 26%
11,CCCC(=O)N1N=C(c2ccccc2)CC1c1cn(C)c2ccccc12 (stereo unspecified),inconclusive: 43.7%
12,Cc1cccc(NC(=O)c2ccccc2O)c1C,inactive: 17.2%
13,CC(CNC(=O)c1ccc(OC2CCN(Cc3ccccn3)CC2)cc1)Oc1cccnc1 (stereo unspecified),inconclusive: 30.3%
14,CC(C)(C)CC(=O)Nc1ccc(S(=O)(=O)N2CCCC2)cc1,inconclusive: 34.3%
15,C=CCSc1cc(C)nc2c(-c3ccccc3)c(C)nn12,inactive: 2.77%
16,CCCCNC(=O)/C(C#N)=c1\s/c(=C\c2ccccc2OC(F)F)c(=O)n1CCCOC,inconclusive: 32.1%
17,O=C(c1ccc(-c2ccccc2Cl)o1)N1CCCC(C(F)(F)F)C1 (stereo unspecified),inconclusive: 47.6%
18,Cc1ccc(C(=O)OCC(=O)N2CCCCCC2)c(O)c1,inactive: 9.63%
19,O=C(NCc1ccccc1)c1ccc(-c2ccccc2F)o1,inconclusive: 75%
20,CCc1ccc2c(COC(=O)C3CSC4(C)CCC(=O)N34)cc(=O)oc2c1 (stereo unspecified),inconclusive: 54.1%
21,COc1ccc(NC(=O)C/C(C)=N/NC(=O)c2ccncc2)c([N+](=O)[O-])c1,inconclusive: 40.8%
22,CC(C)(C)c1ccc2c(c1)OC(C(=O)N/N=C\c1ccc(-c3cccc(C(=O)O)c3)o1)CO2 (stereo unspecified),inactive: 3.91%
